From paper doi:10.1101/2024.07.25.605195 (bioRxiv, 2024)

Target: Adig-FLAG (Adipogenin), overexpressed in adipocytes with AAVs (UniProt Q8R400)
Test: affinity purification with mass spectrometry

B1: LDAF1, endogenous in adipocytes (protein, UniProt Q922Z1 1-161)
chain: MAKEEPPSVSRDLQELQRKLGLLLESFLNNSKVVAFMKSPVGRFLDRHPFVTLTVLMFVTMSAIPVGFFLLIVVLTSLGALMGAILLEGLVISVCGLSLLCVLCGLGFLSLALSGIAMMSYVVVSCLMSYWFSPSRPLTQQNANVDCQLAMKFTESERLIF
binding: binds

Results are given in words; binding and its absence hold for the method and conditions named. In cells and extracts the contact can be indirect. Here binding means that the protein was enriched with, or labelled near, the bait; the list need not be complete.
